In paper PMC12711579 one finds binding data, which are given here for 7 molecules.

No constants are given. Whether binding was seen depends on the method and setting. For some assays here: Binding calls can cover weak binding; strength is not graded here.

Targets include SCEP2 (A. thaliana); SCEP1 (A. thaliana); ASY4 (A. thaliana).
Holding throughout (assay): two-hybrid; Clontech Matchmaker Gold; pGADT7 (AD) and pGBKT7 (BD) fusions co-transformed into Y2H Gold yeast; serial dilutions on DDO, TDO (−His/−Leu/−Trp, screens for weak interactions) and QDO (−His/−Ade/−Leu/−Trp, screens for strong interactions); 3–5 days at 30 °C
Another assay deals with T1, HEI10 (A. thaliana) (UniProt F4HRI2).
T1 sequence: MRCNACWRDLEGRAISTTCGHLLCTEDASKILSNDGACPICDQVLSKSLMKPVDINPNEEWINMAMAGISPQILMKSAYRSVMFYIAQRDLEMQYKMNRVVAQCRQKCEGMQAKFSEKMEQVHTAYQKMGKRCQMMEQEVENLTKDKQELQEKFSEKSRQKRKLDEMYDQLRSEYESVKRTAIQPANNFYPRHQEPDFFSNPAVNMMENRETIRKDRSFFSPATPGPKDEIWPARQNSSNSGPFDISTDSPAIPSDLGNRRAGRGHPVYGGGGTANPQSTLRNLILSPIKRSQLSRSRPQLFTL

The next assay has as its target T2, PCH2 (A. thaliana) (UniProt Q8H1F9).
T2 sequence: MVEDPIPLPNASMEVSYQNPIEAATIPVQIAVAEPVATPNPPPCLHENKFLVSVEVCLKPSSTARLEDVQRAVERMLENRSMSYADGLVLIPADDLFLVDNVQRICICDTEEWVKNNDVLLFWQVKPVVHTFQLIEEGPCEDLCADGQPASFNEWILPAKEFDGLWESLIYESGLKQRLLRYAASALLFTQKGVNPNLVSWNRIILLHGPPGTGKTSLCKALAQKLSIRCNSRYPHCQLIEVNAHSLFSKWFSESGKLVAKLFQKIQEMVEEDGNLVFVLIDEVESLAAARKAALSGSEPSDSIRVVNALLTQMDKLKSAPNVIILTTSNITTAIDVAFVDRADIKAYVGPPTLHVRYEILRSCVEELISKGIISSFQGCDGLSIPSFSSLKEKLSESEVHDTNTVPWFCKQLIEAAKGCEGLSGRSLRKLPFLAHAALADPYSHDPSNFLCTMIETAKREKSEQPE

For a further assay, the target named is T3, ZYP1b (A. thaliana) (UniProt P61430).
T3 sequence: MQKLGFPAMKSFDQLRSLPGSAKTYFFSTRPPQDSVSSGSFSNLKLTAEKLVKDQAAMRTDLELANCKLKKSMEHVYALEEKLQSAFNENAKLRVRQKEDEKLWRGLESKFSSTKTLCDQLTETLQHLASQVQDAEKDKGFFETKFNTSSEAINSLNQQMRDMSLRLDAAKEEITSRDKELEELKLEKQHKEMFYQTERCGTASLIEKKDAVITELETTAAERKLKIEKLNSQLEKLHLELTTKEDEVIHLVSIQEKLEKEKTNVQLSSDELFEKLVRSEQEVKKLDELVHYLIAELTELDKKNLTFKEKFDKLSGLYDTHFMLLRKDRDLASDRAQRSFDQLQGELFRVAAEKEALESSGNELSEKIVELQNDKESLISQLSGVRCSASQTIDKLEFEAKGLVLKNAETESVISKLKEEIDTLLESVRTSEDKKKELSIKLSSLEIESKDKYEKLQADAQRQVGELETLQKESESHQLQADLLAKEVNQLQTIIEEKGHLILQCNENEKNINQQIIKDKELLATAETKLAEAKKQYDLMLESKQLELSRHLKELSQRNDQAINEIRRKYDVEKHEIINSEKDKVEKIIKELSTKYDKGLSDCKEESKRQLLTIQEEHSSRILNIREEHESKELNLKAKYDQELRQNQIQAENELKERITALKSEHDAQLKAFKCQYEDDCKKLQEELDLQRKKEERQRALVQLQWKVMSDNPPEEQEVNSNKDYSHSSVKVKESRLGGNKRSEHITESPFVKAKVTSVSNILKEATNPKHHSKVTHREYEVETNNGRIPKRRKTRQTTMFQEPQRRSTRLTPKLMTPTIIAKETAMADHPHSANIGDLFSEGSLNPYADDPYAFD

A further assay has as its target T4, ZYP1a (A. thaliana) (UniProt Q9LME2).
T4 sequence: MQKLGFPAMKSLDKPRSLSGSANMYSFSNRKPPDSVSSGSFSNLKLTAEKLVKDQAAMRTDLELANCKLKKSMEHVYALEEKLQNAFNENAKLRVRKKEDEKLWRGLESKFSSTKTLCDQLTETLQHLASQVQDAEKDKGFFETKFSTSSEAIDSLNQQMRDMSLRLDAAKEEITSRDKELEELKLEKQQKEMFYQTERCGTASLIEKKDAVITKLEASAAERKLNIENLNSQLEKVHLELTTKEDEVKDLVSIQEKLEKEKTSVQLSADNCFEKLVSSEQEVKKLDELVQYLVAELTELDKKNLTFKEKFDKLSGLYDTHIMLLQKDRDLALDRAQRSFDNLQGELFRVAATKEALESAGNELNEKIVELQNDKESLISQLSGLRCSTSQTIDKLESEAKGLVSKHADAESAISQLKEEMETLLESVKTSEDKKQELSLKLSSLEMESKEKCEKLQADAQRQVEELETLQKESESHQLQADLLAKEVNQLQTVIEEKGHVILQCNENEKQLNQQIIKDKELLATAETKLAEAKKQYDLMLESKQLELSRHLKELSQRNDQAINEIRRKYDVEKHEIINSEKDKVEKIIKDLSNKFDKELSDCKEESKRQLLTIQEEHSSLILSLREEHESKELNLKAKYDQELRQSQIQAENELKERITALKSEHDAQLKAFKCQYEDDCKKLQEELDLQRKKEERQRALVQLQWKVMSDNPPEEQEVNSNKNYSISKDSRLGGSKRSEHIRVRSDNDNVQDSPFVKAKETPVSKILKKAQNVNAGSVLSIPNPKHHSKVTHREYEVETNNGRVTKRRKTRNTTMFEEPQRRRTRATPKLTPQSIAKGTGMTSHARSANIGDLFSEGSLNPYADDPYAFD

As for “SCEP3 N terminus (residues 1–397) (from UniProt A0A1P8B5T3) (domain or fragment)”, the binding result was “no binding” with HEI10 (A. thaliana), “binds weakly” with PCH2 (A. thaliana) and “binds weakly” with ZYP1b (A. thaliana).
For the molecule SCEP1 (A. thaliana), the binding result with ZYP1b (A. thaliana) is “binds”.
As to “SCEP3 C terminus (residues 480–801) (from UniProt A0A1P8B5T3) (domain or fragment)”, the binding entry is reported as “binds” with PCH2 (A. thaliana) and “binds weakly” with ZYP1a (A. thaliana).
On to “SCEP3 C-terminal coil (residues 714–801) (from UniProt A0A1P8B5T3) (domain or fragment)”, for which the binding entry with ZYP1b (A. thaliana) is given as “binds”.
Still for that read-out and setting: in the case of “SCEP3 mid-coil (residues 487–579) (from UniProt A0A1P8B5T3) (domain or fragment)” it was “binds weakly”.

B1: ZYP1b (protein, UniProt P61430 1-856)
chain: T3 sequence
In the case of B1, the binding entry with SCEP2 (A. thaliana) and in the assay with SCEP1 (A. thaliana) was “binds weakly” each time.

B2: ASY3 (protein, UniProt Q0WR66 1-793)
chain: MSDYRSFGSNYHPSSQSRKISIGVMADSQPKRNLVPDKDDGDVIARVEKLKSATVTELQANKKEKSDLAAKQRNSAQVTGHVTSPWRSPRSSHRKLGTLESVLCKQTSSLSGSKGLNKGLNGAHQTPARESFQNCPISSPQHSLGELNGGRNDRVMDRSPERMEEPPSAVLQQKVASQREKMDKPGKETNGTTDVLRSKLWEILGKASPANNEDVNSETPEVEKTNFKLSQDKGSNDDPLIKPRHNSDSIETDSESPENATRRPVTRSLLQRRVGAKGVQKKTKAGANLGRKCTEQVNSVFSFEEGLRGKIGTAVNSSVMPKKQRGRRKNTVVKCRKAHSRKKDEADWSRKEASKSNTPPRSESTETGKRSSSSDKKGSSHDLHPQSKARKQKPDISTREGDFHPSPEAEAAALPEMSQGLSKNGDKHERPSNIFREKSVEPENEFQSPTFGYKAPISSPSPCCSPEASPLQPRNISPTLDETETPIFSFGTKKTSQGTTGQASDTEKRLPDFLEKKRDYSFRRESSPEPNEDLVLSDPSSDERDSDGSREDSPVLGHNISPEERETANWTNERSMLGPSSVKRNSNLKGIGRVVLSPPSPLSKGIDKTDSFQHCSEMDEDEDEGLGRAVALFAMALQNFERKLKSAAEKKSSEIIASVSEEIHLELENIKSHIITEAGKTSNLAKTKRKHAETRLQEQEEKMRMIHEKFKDDVSHHLEDFKSTIEELEANQSELKGSIKKQRTSHQKLIAHFEGGIETKLDDATKRIDSVNKSARGKMLQLKMIVAECLRDD
For the molecule B2, the binding result in the assay with ASY4 (A. thaliana) was “binds”.
